The results in this text go back to the supplement of paper PMC6411743.

Sequences of proteins named here, by UniProt entry; tags and fusion partners are left off. A change or cut given only in a name is not applied to a line headed by its entry.
UniProt Q7L2J0: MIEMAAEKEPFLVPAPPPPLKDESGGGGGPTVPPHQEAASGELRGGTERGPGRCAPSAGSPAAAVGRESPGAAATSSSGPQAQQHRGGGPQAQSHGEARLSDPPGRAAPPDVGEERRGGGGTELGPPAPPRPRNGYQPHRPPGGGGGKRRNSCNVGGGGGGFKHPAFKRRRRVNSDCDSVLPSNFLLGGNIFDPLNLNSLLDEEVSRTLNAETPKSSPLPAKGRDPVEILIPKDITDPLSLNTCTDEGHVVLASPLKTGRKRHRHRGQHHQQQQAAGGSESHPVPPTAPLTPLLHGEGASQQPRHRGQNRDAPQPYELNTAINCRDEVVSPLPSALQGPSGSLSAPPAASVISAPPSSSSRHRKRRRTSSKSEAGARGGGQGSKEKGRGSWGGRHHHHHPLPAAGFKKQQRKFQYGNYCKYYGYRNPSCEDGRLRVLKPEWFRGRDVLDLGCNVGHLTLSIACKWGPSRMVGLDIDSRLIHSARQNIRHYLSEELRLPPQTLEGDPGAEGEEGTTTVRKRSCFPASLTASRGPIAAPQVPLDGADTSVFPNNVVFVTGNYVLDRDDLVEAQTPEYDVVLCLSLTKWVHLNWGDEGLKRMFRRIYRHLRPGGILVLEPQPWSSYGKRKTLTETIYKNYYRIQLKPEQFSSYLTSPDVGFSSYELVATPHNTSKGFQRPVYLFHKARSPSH
UniProt Q6UB99: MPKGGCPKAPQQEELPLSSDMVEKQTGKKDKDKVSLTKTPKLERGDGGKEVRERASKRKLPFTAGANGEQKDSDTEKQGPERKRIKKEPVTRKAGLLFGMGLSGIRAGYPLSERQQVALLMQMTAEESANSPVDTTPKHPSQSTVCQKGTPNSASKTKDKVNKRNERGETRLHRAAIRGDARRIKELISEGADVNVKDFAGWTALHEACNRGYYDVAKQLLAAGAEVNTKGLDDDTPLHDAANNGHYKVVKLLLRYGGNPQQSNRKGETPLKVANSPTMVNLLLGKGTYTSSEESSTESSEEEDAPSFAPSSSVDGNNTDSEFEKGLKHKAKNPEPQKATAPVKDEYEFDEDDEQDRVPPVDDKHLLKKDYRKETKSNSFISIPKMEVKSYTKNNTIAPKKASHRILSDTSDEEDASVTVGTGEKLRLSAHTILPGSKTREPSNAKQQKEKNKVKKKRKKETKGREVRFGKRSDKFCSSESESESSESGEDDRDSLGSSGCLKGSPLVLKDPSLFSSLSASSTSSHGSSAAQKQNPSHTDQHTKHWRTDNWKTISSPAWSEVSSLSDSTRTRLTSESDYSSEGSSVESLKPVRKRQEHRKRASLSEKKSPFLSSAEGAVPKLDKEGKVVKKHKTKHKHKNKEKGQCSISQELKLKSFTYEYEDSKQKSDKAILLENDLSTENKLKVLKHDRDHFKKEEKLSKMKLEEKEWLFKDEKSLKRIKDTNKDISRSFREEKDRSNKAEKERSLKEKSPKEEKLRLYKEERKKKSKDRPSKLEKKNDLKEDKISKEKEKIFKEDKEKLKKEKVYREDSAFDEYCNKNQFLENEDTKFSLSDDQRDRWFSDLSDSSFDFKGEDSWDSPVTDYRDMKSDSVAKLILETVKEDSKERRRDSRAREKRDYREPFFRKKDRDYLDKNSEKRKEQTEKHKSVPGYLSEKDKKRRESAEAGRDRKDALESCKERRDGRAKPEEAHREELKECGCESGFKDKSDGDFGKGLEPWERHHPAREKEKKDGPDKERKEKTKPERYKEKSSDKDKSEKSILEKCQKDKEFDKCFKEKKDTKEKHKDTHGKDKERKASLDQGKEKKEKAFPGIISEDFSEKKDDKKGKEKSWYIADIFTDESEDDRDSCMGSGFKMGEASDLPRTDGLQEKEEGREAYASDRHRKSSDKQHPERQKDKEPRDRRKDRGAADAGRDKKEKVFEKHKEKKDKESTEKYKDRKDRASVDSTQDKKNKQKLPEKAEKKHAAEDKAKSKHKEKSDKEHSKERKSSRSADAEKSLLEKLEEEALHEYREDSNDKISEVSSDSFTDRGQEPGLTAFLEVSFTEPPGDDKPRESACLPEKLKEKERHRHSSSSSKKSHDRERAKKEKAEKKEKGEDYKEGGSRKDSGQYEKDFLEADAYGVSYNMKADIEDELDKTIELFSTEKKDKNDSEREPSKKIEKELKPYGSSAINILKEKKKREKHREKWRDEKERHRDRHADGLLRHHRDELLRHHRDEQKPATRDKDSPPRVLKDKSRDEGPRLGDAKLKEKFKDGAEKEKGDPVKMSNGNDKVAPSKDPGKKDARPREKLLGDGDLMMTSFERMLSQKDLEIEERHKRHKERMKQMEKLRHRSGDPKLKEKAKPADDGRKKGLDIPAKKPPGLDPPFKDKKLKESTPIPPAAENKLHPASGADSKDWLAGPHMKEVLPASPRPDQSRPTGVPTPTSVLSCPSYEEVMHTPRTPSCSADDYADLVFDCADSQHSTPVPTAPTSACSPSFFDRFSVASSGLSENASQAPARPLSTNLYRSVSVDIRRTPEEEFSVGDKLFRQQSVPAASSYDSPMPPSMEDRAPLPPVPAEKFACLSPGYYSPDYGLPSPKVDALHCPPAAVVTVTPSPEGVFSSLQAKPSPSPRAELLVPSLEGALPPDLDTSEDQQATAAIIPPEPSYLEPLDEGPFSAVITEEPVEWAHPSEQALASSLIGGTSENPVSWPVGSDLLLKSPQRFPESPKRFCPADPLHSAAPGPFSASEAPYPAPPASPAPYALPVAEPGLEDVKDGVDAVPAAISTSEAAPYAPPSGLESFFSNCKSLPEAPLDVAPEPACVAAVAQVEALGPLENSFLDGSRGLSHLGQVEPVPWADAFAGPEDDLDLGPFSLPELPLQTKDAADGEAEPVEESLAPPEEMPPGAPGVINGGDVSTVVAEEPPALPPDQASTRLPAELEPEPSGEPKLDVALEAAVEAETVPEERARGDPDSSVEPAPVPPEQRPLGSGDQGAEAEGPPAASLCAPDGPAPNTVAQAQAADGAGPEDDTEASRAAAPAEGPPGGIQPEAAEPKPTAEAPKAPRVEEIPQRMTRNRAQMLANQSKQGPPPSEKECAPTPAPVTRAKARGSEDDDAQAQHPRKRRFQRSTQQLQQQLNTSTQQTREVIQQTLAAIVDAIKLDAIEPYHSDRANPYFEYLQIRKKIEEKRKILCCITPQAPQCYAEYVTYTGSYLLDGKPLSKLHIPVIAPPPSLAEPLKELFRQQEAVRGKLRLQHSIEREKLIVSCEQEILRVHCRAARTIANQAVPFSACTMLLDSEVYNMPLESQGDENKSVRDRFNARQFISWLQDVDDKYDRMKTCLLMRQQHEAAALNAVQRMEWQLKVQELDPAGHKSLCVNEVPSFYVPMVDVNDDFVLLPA
UniProt Q7Z5R6: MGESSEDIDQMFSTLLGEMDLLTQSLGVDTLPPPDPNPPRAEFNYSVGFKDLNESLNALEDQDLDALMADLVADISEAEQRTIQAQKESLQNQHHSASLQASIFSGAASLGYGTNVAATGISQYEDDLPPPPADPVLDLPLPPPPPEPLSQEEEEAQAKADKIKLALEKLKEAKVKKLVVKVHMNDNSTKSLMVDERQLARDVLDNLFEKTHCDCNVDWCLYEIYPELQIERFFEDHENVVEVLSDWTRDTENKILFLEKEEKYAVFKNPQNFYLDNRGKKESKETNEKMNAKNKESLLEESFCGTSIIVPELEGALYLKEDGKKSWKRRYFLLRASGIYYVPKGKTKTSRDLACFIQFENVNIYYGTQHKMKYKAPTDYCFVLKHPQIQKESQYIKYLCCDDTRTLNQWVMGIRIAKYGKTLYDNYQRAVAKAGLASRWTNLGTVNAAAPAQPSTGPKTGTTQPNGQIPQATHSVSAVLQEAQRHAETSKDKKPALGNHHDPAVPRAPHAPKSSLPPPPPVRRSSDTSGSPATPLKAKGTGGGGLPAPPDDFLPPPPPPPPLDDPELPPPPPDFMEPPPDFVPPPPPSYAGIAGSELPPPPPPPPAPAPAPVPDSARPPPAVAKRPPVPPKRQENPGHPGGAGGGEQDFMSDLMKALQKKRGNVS
UniProt Q69YN4: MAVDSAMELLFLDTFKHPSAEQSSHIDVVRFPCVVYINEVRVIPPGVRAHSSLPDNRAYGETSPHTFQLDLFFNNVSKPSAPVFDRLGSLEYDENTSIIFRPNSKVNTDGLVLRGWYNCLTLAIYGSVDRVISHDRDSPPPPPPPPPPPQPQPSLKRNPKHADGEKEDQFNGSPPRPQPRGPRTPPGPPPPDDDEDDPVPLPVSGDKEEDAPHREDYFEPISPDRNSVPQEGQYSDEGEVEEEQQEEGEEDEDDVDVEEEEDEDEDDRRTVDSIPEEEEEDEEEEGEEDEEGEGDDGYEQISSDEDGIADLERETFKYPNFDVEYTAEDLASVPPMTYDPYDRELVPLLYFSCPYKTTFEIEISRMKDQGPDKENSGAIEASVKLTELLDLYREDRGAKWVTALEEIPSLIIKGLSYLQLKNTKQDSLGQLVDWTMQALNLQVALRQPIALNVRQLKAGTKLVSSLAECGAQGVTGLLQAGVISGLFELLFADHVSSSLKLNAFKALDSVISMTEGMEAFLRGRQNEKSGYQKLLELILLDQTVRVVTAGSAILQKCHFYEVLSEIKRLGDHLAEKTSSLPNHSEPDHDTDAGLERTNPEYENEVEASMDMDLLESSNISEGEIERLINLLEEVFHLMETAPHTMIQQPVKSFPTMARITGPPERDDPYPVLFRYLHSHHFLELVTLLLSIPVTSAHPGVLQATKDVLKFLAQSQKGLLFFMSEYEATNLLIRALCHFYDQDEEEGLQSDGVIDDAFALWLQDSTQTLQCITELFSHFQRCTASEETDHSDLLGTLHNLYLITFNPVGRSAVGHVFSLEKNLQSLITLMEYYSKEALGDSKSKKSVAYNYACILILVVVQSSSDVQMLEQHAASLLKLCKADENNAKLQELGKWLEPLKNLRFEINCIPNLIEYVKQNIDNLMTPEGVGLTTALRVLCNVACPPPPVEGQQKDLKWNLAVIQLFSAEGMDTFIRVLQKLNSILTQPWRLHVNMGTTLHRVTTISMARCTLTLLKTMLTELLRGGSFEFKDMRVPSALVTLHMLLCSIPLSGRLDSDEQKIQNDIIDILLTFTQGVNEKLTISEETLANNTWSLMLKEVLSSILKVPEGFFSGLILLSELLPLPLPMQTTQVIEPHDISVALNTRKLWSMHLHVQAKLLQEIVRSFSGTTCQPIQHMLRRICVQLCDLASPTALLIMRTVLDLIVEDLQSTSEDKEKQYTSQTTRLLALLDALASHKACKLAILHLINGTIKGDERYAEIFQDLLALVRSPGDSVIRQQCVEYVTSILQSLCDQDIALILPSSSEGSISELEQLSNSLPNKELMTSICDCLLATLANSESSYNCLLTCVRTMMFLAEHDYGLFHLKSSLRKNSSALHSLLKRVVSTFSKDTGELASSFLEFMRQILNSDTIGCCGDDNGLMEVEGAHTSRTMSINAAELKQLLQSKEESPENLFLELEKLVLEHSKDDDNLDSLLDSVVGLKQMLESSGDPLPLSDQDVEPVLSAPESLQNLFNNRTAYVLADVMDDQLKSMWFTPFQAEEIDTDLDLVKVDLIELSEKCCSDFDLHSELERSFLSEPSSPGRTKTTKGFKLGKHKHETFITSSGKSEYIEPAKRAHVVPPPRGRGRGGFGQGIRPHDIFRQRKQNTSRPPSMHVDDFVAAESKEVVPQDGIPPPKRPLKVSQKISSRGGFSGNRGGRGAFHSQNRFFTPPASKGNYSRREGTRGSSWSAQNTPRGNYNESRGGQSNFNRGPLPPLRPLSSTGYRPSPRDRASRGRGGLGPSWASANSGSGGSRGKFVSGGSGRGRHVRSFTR
UniProt Q7L8L6: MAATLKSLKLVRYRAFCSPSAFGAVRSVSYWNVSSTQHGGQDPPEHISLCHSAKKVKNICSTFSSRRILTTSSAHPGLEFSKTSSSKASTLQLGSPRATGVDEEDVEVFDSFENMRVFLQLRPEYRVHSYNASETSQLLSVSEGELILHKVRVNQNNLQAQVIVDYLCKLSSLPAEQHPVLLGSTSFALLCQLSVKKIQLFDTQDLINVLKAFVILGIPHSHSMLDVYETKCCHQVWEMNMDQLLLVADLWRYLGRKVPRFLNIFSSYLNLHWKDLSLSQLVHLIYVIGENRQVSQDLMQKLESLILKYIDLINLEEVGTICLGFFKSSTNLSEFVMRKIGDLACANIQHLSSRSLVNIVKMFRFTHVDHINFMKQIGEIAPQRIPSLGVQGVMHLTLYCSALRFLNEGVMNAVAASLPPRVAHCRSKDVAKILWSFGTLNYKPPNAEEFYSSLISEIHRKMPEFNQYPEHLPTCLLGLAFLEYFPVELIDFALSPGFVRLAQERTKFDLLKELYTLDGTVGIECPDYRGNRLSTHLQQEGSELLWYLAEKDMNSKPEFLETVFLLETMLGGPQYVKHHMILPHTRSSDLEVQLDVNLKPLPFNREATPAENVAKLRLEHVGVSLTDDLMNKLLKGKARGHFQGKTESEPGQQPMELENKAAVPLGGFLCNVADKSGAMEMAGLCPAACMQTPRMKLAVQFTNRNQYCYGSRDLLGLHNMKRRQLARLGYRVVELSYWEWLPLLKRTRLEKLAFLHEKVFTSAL

± gives the standard deviation of the averaged measurements. The list shows a part of the results, in another mix than the full data. Most values lie at the level of the controls, where differences are scatter.

Compound in the assay: Nc1ncnc2c1ncn2[C@@H]1O[C@H](COP(=O)(O)OP(=O)(O)NP(=O)(O)O)[C@@H](O)[C@H]1O [adenylyl imidodiphosphate]
In words: NP40-soluble protein abundance relative to vehicle (solubility fold change) (ratio); higher = more soluble protein in presence of AMP-PNP. As to conditions: concentration: 0.1mM. An outline of the steps:
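Jurkat crude lysate (Dounce-homogenised) was treated with eight concentrations from 0.1 to 10 mM for 10 min at room temperature, then 3 min at 37 °C. It was solubilised with 0.8% NP40 and benzonase (60 min, 4 °C) and ultracentrifuged, and the supernatant was TMT-labelled for LC-MS/MS. Intensities were vsn-normalised, and the value is the fold change against the NP40-processed vehicle per replicate, from three independent experiments.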
Take UniProt Q6P2C8 and related entries: the NP40-soluble protein abundance amounted to 1 ± 0.025.

Regarding UniProt Q5XUX1 and related entries, the NP40-soluble protein abundance was 0.987 ± 0.016.

With UniProt Q6GYQ0 and related entries, the NP40-soluble protein abundance was 0.985 ± 0.025.

As for UniProt Q7Z392, the NP40-soluble protein abundance turned out to be 1.02 ± 0.045.

Consider MYSM1 (UniProt Q5VVJ2), for which the NP40-soluble protein abundance is 0.958 ± 0.038.

Take FAHD1 (UniProt Q6P587): the NP40-soluble protein abundance was determined as 0.987 ± 0.018.

Turning to MED13L (UniProt Q71F56), the NP40-soluble protein abundance was found to be 1.01 ± 0.028.

With UniProt Q6GPH4 and related entries, the NP40-soluble protein abundance was found to be 1.02 ± 0.025.

As for MBLAC2 (UniProt Q68D91), the NP40-soluble protein abundance is 1 ± 0.047.

UniProt Q5VST6: the NP40-soluble protein abundance came out at 1.03 ± 0.088.

Consider MICAL3 (UniProt Q7RTP6), for which the NP40-soluble protein abundance was determined as 1 ± 0.035.

As to C16orf87 (UniProt Q6PH81), the NP40-soluble protein abundance was determined as 0.971 ± 0.021.

With UniProt Q6PCB8 and related entries, the NP40-soluble protein abundance was 0.978 ± 0.021.

Turning to MON1B (UniProt Q7L1V2), the NP40-soluble protein abundance stood at 1.01 ± 0.021.

Regarding UniProt Q7Z434 and related entries, the NP40-soluble protein abundance amounted to 0.988 ± 0.014.

Regarding UniProt Q7L2E3-2, the NP40-soluble protein abundance worked out at 1.05 ± 0.014.

For the target UniProt Q6R327 and related entries, the NP40-soluble protein abundance is 1.02 ± 0.043.

Turning to DUS1L (UniProt Q6P1R4), the NP40-soluble protein abundance stood at 1 ± 0.042.

Turning to UniProt Q6GMV3, the NP40-soluble protein abundance stood at 0.963 ± 0.041.

With MEPCE (UniProt Q7L2J0), the NP40-soluble protein abundance was determined as 1 ± 0.021.

Turning to UniProt Q7Z3U7 and related entries, the NP40-soluble protein abundance was 0.994 ± 0.067.

In the case of ANKRD11 (UniProt Q6UB99), the NP40-soluble protein abundance turned out to be 0.976 ± 0.016.

Consider UniProt Q5VT52 and related entries, for which the NP40-soluble protein abundance came out at 0.99 ± 0.025.

APBB1IP (UniProt Q7Z5R6): the NP40-soluble protein abundance turned out to be 1 ± 0.034.

Consider UniProt Q69YN4, for which the NP40-soluble protein abundance is 1.01 ± 0.029.

Regarding UniProt Q6PI26 and related entries, the NP40-soluble protein abundance worked out at 0.999 ± 0.015.

As for FASTKD5 (UniProt Q7L8L6), the NP40-soluble protein abundance is 0.9842 ± 0.0066.
